# Results deposited as PubChem BioAssay AID1259405 (NCATS, 2018)
# Aim: 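Mouse-designed siRNAs used to find CHO productivity engineering targets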 (primary screen)
# System: Chinese hamster CHO-K1 ovary cells with stable secreted eGFP expression
# Reagents: single siRNA against mouse genes, 0.8 pmol siRNA per well (2 µl of 400 nM stock)
# Duration: 3 days
# Measured: 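Percent of the per-plate non-targeting control median for intracellular GFP per well by laser scanning cytometry and for cell viability by ATP luminescence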
# Reading the numbers: GFP, % of control: higher = more GFP per well, higher productivity; viability (ATP), % of control: higher = more viable cells (more ATP)
# Call rule: 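a knock-down is called active if GFP reaches 120% or more of non-targeting control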
# The whole screen tested about 50,000 reagents; shown is a part drawn at random. About 4,000 of them (8%) count as active. 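Mouse siRNA library applied to hamster cells; one well for each siRNA.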 Reagents against one gene are numbered here. Reagent sequences are not shown.
The first 2 records, to show the layout:
gene,reagent,"GFP, % of control","viability (ATP), % of control",activity call
Hs3st1 (heparan sulfate (glucosamine) 3-O-sulfotransferase 1),1,75,62.4,inactive
Hs3st1 (heparan sulfate (glucosamine) 3-O-sulfotransferase 1),2,132,112,active

Results, repeating the preview:
gene,reagent,"GFP, % of control","viability (ATP), % of control",activity call
Hs3st1 (heparan sulfate (glucosamine) 3-O-sulfotransferase 1),1,75,62.4,inactive
Hs3st1 (heparan sulfate (glucosamine) 3-O-sulfotransferase 1),2,132,112,active
Hs3st1 (heparan sulfate (glucosamine) 3-O-sulfotransferase 1),3,74.8,103,inactive
"Sf3b4 (splicing factor 3b, subunit 4)",1,97,95.5,inactive
"Sf3b4 (splicing factor 3b, subunit 4)",2,71.7,63.7,inactive
"G6pc3 (glucose 6 phosphatase, catalytic, 3)",1,114,94.7,inactive
"G6pc3 (glucose 6 phosphatase, catalytic, 3)",2,107,97.1,inactive
"G6pc3 (glucose 6 phosphatase, catalytic, 3)",3,83.6,75.7,inactive
Wdr3 (WD repeat domain 3),1,52.6,41.8,inactive
Wdr3 (WD repeat domain 3),2,49.3,47.9,inactive
Wdr3 (WD repeat domain 3),3,45.8,56.3,inactive
Trp53i13 (transformation related protein 53 inducible protein 13),1,38,39.5,inactive
Trp53i13 (transformation related protein 53 inducible protein 13),2,154,118,active
Rai14 (retinoic acid induced 14),1,57,78.3,inactive
Rai14 (retinoic acid induced 14),2,60.1,74.7,inactive
Rai14 (retinoic acid induced 14),3,52.7,54.1,inactive
Ypel5 (yippee like 5),1,64.9,68.3,inactive
Ypel5 (yippee like 5),2,62.2,64,inactive
Ypel5 (yippee like 5),3,86.1,116,inactive
Wdr27 (WD repeat domain 27),1,39.5,62.8,inactive
Wdr27 (WD repeat domain 27),2,47.1,67.8,inactive
Wdr27 (WD repeat domain 27),3,57,56.7,inactive
F830005K03Rik (RIKEN cDNA F830005K03 gene),1,50.2,53.8,inactive
F830005K03Rik (RIKEN cDNA F830005K03 gene),2,72.9,90.1,inactive
F830005K03Rik (RIKEN cDNA F830005K03 gene),3,83.5,78.5,inactive
"Zmynd15 (zinc finger, MYND-type containing 15)",1,46.1,50.3,inactive
"Zmynd15 (zinc finger, MYND-type containing 15)",2,79.4,53.9,inactive
"Zmynd15 (zinc finger, MYND-type containing 15)",3,103,80.1,inactive
Nav1 (neuron navigator 1),1,51.4,70.4,inactive
Nav1 (neuron navigator 1),2,55.2,78.8,inactive
Nav1 (neuron navigator 1),3,62.2,41.4,inactive
Hsh2d (hematopoietic SH2 domain containing),1,57.5,68.6,inactive
Hsh2d (hematopoietic SH2 domain containing),2,124,87.2,active
Hsh2d (hematopoietic SH2 domain containing),3,63.4,102,inactive
